{
  "source": "paper PMC5996148",
  "assay_in_all_cases": "protein microarray (ProtoArray v5.0), streptavidin-Alexa Fluor 647",
  "conditions_in_all_cases": "3'-biotin; 20 mM Tris (pH 7.5), 5 mM MgCl2, 100 mM KCl, 0.1% Tween-20, A/T-rich and random oligonucleotide blockers; temperature not stated; high values mean tight binding",
  "key": {"[1]": {"tested_on": "BRICHOS domain-containing protein C16orf79 (human)"}, "[2]": {"tested_on": "BRWD1 (human)"}, "[3]": {"target": "T1, BSG (UniProt P35613)", "T1 sequence": "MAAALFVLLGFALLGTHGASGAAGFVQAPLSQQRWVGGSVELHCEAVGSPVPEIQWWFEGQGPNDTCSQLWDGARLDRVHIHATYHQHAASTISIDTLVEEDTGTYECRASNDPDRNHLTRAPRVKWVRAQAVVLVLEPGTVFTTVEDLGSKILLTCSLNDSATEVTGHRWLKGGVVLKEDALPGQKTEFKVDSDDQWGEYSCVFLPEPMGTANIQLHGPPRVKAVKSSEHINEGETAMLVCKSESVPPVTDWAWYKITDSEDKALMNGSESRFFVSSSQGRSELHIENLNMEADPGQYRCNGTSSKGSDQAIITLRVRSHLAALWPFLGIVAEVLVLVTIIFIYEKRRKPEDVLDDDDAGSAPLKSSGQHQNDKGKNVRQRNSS"}, "[4]": {"tested_on": "BSND (human)"}, "[5]": {"tested_on": "BST1 (human)"}, "[6]": {"tested_on": "BTB/POZ domain-containing protein KCTD9 (human)"}, "[7]": {"tested_on": "BTBD10 (human)"}, "[8]": {"tested_on": "BTG2 (human)"}, "[9]": {"tested_on": "BTN3A2 (human)"}, "[10]": {"tested_on": "BZW2 (human)"}},
  "note": "The list shows a part of the results. For some of these results: The exact form of the protein is not confirmed.",
  "data": [
    {"sequence": "GGGAGGCTGAGGCAGG [G4-1 biotinylated (PQS2)]", "values": [
      {"measurement": "binding signal", "setting": "[1]", "value": -0.267, "unit": "z-score"},
      {"measurement": "binding signal", "setting": "[2]", "value": -0.238, "unit": "z-score"},
      {"measurement": "binding signal", "setting": "[3]", "value": -0.345, "unit": "z-score"},
      {"measurement": "binding signal", "setting": "[4]", "value": -0.317, "unit": "z-score"},
      {"measurement": "binding signal", "setting": "[5]", "value": -0.304, "unit": "z-score"},
      {"measurement": "binding signal", "setting": "[6]", "value": -0.306, "unit": "z-score"},
      {"measurement": "binding signal", "setting": "[7]", "value": -0.26, "unit": "z-score"},
      {"measurement": "binding signal", "setting": "[8]", "value": -0.345, "unit": "z-score"},
      {"measurement": "binding signal", "setting": "[9]", "value": -0.303, "unit": "z-score"},
      {"measurement": "binding signal", "setting": "[10]", "value": -0.278, "unit": "z-score"}
    ]}
  ]
}
